PubChem BioAssay AID504791 – Drosophila RNAi Screening Center | 2011

- Screen: 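Factors in Argonaute-based small RNA production and activity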 (primary screen)
- Cells: Drosophila S2-derived reporter cells
- Reagents: long dsRNA against Drosophila genes, about 150-250 ng dsRNA per well (siRNA assay); about 80-120 ng (miRNA assay)
- Time to read-out: about 5 days (siRNA assay); about 4 days (miRNA assay)
- Challenge: copper sulfate induction of reporters: 25 µM (siRNA assay); 200 mM stated (miRNA assay), 1-2 days before reading
- Measured: 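Dual luciferase assay: Renilla to firefly signal ratio in each well, scaled to the mean ratio of its plate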
- Scale: siRNA reporter hit score: higher = 3 marks a strong hit with raised ratio; -3 a strong hit with lowered ratio
- Rule for the call: 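a well was a first-pass pick when its plate-scaled ratio rose above 1.5 (siRNA assay) or 1.6 (miRNA assay), or dropped below 0.6; a gene counted only if two separate dsRNAs agreed on retest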
The screen tested about 23,000 reagents; shown is an unselected part of those with a known target gene and a result. In the full data, 199 (0.86%) got an active call. 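Plate-scaled ratios behind the calls are not deposited; printed light signals are raw; many rows marked increased or decreased are still called inactive.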 A number with no mark means an inactive call. A plus sign joins genes that one reagent is predicted to hit. Further read-outs or replicates are left out here. No sequences are given here.

The opening 3 entries as a preview:
| gene | DRSC id | siRNA reporter hit score | stable siRNA reporter change | miRNA reporter change | stable assay Renilla, run 1 (luminescence) |
| --- | --- | --- | --- | --- | --- |
| Or19a (Odorant receptor 19a) | DRSC20684 | – | – | – | 5964 |
| kay (kayak) | DRSC13962 | – | – | – | 6304 |
| kay (kayak) | DRSC15048 | – | – | – | 5063 |

The listing, from the first entry:
| gene | DRSC id | siRNA reporter hit score | stable siRNA reporter change | miRNA reporter change | stable assay Renilla, run 1 (luminescence) |
| --- | --- | --- | --- | --- | --- |
| Or19a (Odorant receptor 19a) | DRSC20684 | – | – | – | 5964 |
| kay (kayak) | DRSC13962 | – | – | – | 6304 |
| kay (kayak) | DRSC15048 | – | – | – | 5063 |
| kay (kayak) | DRSC16977 | – | reporter ratio raised past the hit cutoff (active) | – | 9019 |
| CG30054 | DRSC05354 | – | – | – | 5167 |
| CG33093 | DRSC15775 | – | – | – | 4583 |
| CG10839 | DRSC01965 | – | – | – | 7739 |
| cnk (connector enhancer of ksr) | DRSC07595 | – | – | – | 6143 |
| wde (windei) | DRSC05955 | – | – | – | 8499 |
| Ugt316A1 (UDP-glycosyltransferase family 316 member A1) | DRSC10376 | – | – | – | 6216 |
| Mst27D (Male specific transcript 27D) | DRSC00967 | – | – | – | 5651 |
| kermit | DRSC06074 | – | – | – | 10102 |
| CG42374 + Mettl5 | DRSC11085 | – | – | – | 9719 |
| LManIII (Lysosomal alpha-mannosidase III) | DRSC03221 | – | – | – | 6659 |
| Cyp6w1 (Cytochrome P450 6w1) | DRSC04909 | – | – | – | 22936 |
| ATPsynbeta (ATP synthase, beta subunit) | DRSC17194 | – | – | – | 3195 |
| mirr (mirror) | DRSC11369 | – | – | reporter ratio lowered past the hit cutoff | 7342 |
| CG31115 | DRSC13692 | – | – | – | 5667 |
| CG31913 | DRSC00892 | – | – | – | 4243 |
| Cul4 (Cullin 4) | DRSC07243 | – | – | – | 6056 |
| wapl (wings apart-like) | DRSC18851 | – | – | – | 8133 |
| muc (midline uncoordinated) | DRSC02832 | – | – | – | 6902 |
| muc (midline uncoordinated) | DRSC21940 | – | – | – | 8689 |
| CG6013 | DRSC15947 | – | – | – | 8138 |
| CG32409 | DRSC08780 | – | – | – | 6295 |
| Den1 (Deneddylase 1) | DRSC07195 | – | – | – | 6563 |
| ChLD3 (Chitin and LDLR binding deacetylase 3) | DRSC02640 | – | – | – | 7060 |
| hid (head involution defective) | DRSC11316 | – | – | – | 6796 |
| CG9702 | DRSC16540 | – | – | – | 6160 |
| CG11333 | DRSC14301 | – | – | – | 7622 |
| Gdap1 | DRSC10437 | – | – | – | 6258 |
| Gprk2 (G protein-coupled receptor kinase 2) | DRSC16682 | 3 (active) | reporter ratio lowered past the hit cutoff | reporter ratio lowered past the hit cutoff | 6666 |
| Gprk2 (G protein-coupled receptor kinase 2) | DRSC23336 | – | – | – | 4808 |
| Snx1 (Sorting nexin 1) | DRSC00531 | – | – | – | 7850 |
